The list shows a part of the results.
How the values were obtained:
Assay in all cases: log2 fold change, soluble protein after heating vs DMSO (PISA); higher = thermal stabilisation; K562 cells, 10 uM, 30 min; active = over 0.2 and 3.5 SD of the protein, either way, in both replicates (recomputed)
saracatinib = compound: CN1CCN(CCOc2cc(OC3CCOCC3)c3c(Nc4c(Cl)ccc5c4OCO5)ncnc3c2)CC1 [saracatinib]
Procedure, shortened: (§1)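 K562 cells (2×10^6 cells/mL) were treated with 10 μM compound for 30 min, and aliquots were heated for 3 min over 48°C-58°C. Pooled aliquots were extracted in PBS with 0.5% NP-40 at 4°C, and the supernatant after 21,000xg for 90 min was measured by TMTpro 16plex LC-MS/MS with channel sums equalised. Reported thermal stability, relative to control samples and from duplicates, is a log2 fold change.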

By UniProt entry, the sequences of proteins in these tests, tags left out. Where a name states a change or a piece, a line headed by the entry shows the natural chain unless it says otherwise.
UniProt Q16611: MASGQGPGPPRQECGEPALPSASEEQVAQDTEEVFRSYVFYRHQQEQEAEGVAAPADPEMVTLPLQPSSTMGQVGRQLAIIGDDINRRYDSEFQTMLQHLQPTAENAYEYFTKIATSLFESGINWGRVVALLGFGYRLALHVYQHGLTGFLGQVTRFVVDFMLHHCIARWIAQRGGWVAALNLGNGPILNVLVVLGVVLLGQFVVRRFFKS
UniProt Q12981: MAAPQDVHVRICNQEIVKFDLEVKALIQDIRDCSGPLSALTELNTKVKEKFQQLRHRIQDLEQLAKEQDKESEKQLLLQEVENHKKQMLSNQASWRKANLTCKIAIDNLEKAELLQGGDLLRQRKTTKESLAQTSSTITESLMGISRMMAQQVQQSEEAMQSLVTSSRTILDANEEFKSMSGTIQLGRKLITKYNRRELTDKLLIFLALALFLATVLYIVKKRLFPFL
UniProt Q9NUP1: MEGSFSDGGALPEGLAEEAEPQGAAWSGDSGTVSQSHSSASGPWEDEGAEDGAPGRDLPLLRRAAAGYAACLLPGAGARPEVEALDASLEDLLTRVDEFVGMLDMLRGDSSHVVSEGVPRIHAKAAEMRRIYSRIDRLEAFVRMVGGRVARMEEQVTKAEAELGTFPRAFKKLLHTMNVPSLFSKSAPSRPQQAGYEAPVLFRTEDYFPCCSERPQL
UniProt P54132: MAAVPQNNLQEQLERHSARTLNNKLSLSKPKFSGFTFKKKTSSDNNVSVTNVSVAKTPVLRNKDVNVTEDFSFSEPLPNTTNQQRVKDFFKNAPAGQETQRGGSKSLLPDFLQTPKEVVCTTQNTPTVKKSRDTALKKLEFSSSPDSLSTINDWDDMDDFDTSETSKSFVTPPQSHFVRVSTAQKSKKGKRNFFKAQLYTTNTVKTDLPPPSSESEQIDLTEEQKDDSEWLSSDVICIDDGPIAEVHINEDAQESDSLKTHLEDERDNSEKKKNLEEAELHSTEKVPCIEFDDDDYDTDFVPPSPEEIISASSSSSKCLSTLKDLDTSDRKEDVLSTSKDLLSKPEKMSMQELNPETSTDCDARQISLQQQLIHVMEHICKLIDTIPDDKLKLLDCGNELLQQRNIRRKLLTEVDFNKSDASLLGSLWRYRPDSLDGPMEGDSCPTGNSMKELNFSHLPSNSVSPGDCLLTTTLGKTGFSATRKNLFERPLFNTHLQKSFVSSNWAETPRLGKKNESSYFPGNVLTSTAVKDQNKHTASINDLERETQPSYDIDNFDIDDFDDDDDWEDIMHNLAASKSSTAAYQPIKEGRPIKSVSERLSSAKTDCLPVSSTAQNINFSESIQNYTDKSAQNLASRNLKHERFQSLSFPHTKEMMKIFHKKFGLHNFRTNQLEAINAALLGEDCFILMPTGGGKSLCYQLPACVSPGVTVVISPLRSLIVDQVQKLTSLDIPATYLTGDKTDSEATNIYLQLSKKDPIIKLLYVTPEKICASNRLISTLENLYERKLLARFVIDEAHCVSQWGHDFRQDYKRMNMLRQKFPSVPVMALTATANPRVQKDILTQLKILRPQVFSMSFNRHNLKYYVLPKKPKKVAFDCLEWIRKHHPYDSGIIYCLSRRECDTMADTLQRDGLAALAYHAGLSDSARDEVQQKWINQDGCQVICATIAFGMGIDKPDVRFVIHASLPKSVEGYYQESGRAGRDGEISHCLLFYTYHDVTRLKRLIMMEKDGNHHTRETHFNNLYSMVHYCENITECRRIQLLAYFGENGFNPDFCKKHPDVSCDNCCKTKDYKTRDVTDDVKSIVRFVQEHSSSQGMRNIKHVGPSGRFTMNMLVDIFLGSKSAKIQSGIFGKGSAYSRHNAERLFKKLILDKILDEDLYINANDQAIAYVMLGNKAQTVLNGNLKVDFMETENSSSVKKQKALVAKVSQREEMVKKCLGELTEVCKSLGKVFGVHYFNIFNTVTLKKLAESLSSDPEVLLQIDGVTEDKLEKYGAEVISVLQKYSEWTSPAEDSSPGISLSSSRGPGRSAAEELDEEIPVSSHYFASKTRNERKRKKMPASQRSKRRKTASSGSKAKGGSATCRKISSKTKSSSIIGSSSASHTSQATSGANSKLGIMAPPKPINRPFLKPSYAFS
UniProt Q9UBB4: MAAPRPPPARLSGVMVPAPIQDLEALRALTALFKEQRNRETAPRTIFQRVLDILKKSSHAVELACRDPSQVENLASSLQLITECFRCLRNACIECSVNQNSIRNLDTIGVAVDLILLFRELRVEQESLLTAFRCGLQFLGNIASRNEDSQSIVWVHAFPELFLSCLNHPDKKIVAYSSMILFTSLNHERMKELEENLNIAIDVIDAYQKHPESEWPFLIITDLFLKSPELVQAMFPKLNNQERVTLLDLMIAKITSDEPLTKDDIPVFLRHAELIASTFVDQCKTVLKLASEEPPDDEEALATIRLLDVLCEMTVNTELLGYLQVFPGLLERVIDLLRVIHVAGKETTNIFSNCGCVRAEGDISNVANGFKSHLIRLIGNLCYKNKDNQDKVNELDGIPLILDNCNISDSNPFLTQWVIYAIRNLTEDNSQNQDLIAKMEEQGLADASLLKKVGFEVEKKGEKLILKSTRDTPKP
UniProt Q99933: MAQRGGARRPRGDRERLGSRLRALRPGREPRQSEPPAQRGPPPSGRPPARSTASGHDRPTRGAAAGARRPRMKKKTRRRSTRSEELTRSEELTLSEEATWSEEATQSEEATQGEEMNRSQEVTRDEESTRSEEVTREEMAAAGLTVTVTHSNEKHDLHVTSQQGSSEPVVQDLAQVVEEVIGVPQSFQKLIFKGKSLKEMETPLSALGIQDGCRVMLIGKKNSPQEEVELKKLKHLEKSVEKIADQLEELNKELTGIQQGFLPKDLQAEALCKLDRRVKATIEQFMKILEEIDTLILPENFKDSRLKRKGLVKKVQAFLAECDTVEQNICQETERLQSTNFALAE
UniProt O75531: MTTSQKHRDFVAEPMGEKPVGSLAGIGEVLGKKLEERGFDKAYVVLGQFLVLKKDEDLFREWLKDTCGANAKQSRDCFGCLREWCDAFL
UniProt Q96GX2: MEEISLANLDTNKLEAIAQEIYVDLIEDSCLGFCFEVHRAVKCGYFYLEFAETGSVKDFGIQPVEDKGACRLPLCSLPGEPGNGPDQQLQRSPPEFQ
UniProt Q9UHR4: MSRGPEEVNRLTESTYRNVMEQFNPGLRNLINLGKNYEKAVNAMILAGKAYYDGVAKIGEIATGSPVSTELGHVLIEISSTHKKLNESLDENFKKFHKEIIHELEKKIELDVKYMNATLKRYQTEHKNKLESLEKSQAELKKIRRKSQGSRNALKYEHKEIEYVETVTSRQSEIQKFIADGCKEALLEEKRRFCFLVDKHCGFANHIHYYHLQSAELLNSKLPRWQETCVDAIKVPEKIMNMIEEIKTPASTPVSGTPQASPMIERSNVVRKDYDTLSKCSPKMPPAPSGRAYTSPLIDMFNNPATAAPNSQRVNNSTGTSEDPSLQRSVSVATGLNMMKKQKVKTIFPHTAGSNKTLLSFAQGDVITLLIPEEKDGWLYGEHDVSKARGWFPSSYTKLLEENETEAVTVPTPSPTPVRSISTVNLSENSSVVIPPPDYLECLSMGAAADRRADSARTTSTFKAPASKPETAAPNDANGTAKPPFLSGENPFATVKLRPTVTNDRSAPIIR
UniProt Q96GS4: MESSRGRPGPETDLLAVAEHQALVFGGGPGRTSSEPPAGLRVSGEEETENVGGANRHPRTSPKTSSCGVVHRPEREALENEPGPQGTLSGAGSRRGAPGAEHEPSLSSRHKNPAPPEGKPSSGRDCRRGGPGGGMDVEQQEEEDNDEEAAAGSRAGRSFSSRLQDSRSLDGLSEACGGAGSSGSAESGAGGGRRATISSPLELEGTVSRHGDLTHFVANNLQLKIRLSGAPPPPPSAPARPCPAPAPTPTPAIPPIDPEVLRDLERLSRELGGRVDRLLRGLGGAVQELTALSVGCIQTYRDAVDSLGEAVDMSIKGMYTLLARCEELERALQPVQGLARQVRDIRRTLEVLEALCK
UniProt Q9UL45: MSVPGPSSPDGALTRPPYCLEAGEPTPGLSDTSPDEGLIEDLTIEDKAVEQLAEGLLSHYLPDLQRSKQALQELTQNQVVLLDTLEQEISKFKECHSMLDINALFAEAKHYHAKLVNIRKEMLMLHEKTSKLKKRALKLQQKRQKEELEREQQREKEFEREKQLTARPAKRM
UniProt Q14692: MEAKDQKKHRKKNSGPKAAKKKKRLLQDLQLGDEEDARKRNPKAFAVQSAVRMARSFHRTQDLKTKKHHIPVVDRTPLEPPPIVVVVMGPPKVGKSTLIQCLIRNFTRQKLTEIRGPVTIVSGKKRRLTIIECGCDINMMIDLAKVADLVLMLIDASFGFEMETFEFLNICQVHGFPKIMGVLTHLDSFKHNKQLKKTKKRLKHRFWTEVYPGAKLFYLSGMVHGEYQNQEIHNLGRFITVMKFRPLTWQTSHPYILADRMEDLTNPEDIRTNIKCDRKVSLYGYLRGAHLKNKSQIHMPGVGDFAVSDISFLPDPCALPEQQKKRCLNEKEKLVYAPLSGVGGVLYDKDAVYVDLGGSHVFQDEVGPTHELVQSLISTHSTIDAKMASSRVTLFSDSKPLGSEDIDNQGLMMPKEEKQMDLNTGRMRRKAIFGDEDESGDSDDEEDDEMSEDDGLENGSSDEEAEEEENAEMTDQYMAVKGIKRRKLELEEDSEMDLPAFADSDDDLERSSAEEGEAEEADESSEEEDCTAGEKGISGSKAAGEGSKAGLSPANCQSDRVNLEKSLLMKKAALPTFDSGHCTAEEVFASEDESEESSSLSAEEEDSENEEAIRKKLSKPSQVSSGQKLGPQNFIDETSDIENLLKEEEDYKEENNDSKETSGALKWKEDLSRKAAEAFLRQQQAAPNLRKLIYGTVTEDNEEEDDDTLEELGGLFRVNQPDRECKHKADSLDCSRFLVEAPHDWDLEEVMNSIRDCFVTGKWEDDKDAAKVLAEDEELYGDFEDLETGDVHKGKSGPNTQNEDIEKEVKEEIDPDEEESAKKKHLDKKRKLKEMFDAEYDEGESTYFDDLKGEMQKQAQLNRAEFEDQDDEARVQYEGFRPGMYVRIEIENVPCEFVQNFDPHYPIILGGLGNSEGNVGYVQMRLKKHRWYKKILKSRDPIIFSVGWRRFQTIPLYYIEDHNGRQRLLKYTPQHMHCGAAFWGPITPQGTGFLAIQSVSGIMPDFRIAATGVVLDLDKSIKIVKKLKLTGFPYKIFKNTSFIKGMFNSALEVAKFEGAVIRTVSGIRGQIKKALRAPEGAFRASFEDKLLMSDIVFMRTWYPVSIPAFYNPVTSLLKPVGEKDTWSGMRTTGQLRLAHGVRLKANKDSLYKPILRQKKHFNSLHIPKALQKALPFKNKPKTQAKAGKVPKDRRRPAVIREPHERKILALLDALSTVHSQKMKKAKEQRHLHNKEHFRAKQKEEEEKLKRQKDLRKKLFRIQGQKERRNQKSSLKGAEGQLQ
UniProt Q8TDH9: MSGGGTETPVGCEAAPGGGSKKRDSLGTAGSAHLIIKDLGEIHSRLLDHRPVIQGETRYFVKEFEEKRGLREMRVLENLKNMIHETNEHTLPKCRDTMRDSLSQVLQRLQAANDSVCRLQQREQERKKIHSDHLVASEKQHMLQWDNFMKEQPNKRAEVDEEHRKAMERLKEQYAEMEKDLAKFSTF

sotrastaurin = compound: CN1CCN(c2nc(C3=C(c4c[nH]c5ccccc45)C(=O)NC3=O)c3ccccc3n2)CC1 [sotrastaurin]
Procedure, shortened: as §1

alvocidib = compound: CN1CC[C@H](c2c(O)cc(O)c3c(=O)cc(-c4ccccc4Cl)oc23)[C@H](O)C1 [alvocidib]
Procedure, shortened: as §1

Tubastatin A = compound: CN1CCc2c(c3ccccc3n2Cc2ccc(C(=O)NO)cc2)C1 [Tubastatin A]
Procedure, shortened: as §1

[1] = compound: CNC(=O)C1=CC=CC=C1NC2=NC(=NC=C2Cl)NC3=C(C=C(C=C3)N4CCOCC4)OC
Procedure, shortened: as §1

defactinib = compound: CNC(=O)c1ccc(Nc2ncc(C(F)(F)F)c(NCc3nccnc3N(C)S(C)(=O)=O)n2)cc1 [defactinib]
Procedure, shortened: as §1

rucaparib = compound: CNCc1ccc(-c2[nH]c3cc(F)cc4c3c2CCNC4=O)cc1 [rucaparib]
Procedure, shortened: as §1

[2] = compound: CNc1nc(-c2ccc3c(N)n[nH]c3c2)cc(N2C[C@@H](C(=O)NC3CCCCC3)CC[C@H]2C)n1
Procedure, shortened: as §1

encorafenib = compound: COC(=O)N[C@@H](C)CNc1nccc(-c2cn(C(C)C)nc2-c2cc(Cl)cc(NS(C)(=O)=O)c2F)n1 [encorafenib]
Procedure, shortened: as §1

[3] = compound: COC(=O)[C@H](CCSC)NC(=O)C1=C(C=C(C=C1)NC[C@H](CS)N)C2=CC=CC=C2
Procedure, shortened: as §1

[4] = compound: COC1=CC=C(C=C1)CN2C=CC3=C2C=C(C=C3)C(=O)NO
Procedure, shortened: as §1

filanesib = compound: CON(C)C(=O)N1N=C(c2cc(F)ccc2F)S[C@@]1(CCCN)c1ccccc1 [filanesib]
Procedure, shortened: as §1

zotarolimus = compound: CO[C@H]1C[C@@H]2CC[C@@H](C)[C@@](O)(O2)C(=O)C(=O)N2CCCC[C@H]2C(=O)O[C@H]([C@H](C)C[C@@H]2CC[C@H](n3cnnn3)[C@H](OC)C2)CC(=O)[C@H](C)/C=C(\C)[C@@H](O)[C@@H](OC)C(=O)[C@H](C)C[C@H](C)/C=C/C=C/C=C/1C [zotarolimus]
Procedure, shortened: as §1

idasanutlin = compound: COc1cc(C(=O)O)ccc1NC(=O)[C@@H]1N[C@@H](CC(C)(C)C)[C@](C#N)(c2ccc(Cl)cc2F)[C@H]1c1cccc(Cl)c1F [idasanutlin]
Procedure, shortened: as §1

alisertib = compound: COc1cc(Nc2ncc3c(n2)-c2ccc(Cl)cc2C(c2c(F)cccc2OC)=NC3)ccc1C(=O)O [alisertib]
Procedure, shortened: as §1

[5] = compound: COc1cc2nc(-c3cc(F)ccc3O)nc(N[C@@H]3CNC[C@H]3C(C)(C)O)c2cc1OC
Procedure, shortened: as §1

gefitinib = compound: COc1cc2ncnc(Nc3ccc(F)c(Cl)c3)c2cc1OCCCN1CCOCC1 [gefitinib]
Procedure, shortened: as §1

[6] = compound: COc1cccc2cc(-c3nc([C@H]4CC[C@H](C(=O)O)CC4)n4ncnc(N)c34)[nH]c12
Procedure, shortened: as §1

lapatinib = compound: CS(=O)(=O)CCNCc1ccc(-c2ccc3ncnc(Nc4ccc(OCc5cccc(F)c5)c(Cl)c4)c3c2)o1 [lapatinib]
Procedure, shortened: as §1

pictilisib = compound: CS(=O)(=O)N1CCN(Cc2cc3nc(-c4cccc5[nH]ncc45)nc(N4CCOCC4)c3s2)CC1 [pictilisib]
Procedure, shortened: as §1

Measured: log2 fold change

BCKDK (UniProt O14874)
inactive: saracatinib 0.083 | sotrastaurin 0.046 | alvocidib 0.088 | Tubastatin A 0.002 | [1] -0.051 | defactinib 0.083 | rucaparib -0.031 | [2] -0.038 | encorafenib 0.048 | [3] 0.074 | [4] -0.029 | filanesib 0.04 | zotarolimus -0.025 | idasanutlin 0.022 | alisertib -0.083 | [5] 0 | gefitinib 0.018 | [6] 0.04 | lapatinib 0.002 | pictilisib 0.198

BOD1L1 (UniProt Q8NFC6)
inactive: saracatinib -0.006 | sotrastaurin -0.05 | alvocidib 0.039 | Tubastatin A 0.003 | [1] -0.029 | defactinib 0.013 | rucaparib 0.039 | [2] -0.021 | encorafenib 0.019 | [3] 0.03 | [4] -0.019 | filanesib 0.125 | zotarolimus -0.016 | idasanutlin 0.103 | alisertib 0.034 | [5] 0.019 | gefitinib -0.012 | [6] -0.024 | lapatinib 0.023 | pictilisib -0.028

BAK1 (UniProt Q16611)
inactive: saracatinib 0.022 | sotrastaurin 0.08 | alvocidib -0.039 | Tubastatin A -0.079 | [1] 0.094 | defactinib -0.161 | rucaparib -0.16 | [2] -0.116 | encorafenib 0.035 | [3] 0.03 | [4] -0.16 | filanesib 0.007 | zotarolimus 0.067 | idasanutlin -0.067 | alisertib -0.054 | [5] -0.071 | gefitinib 0.121 | [6] 0.082 | lapatinib 0.002 | pictilisib -0.036

BNIP1 (UniProt Q12981)
inactive: saracatinib -0.006 | sotrastaurin 0.036 | alvocidib -0.063 | Tubastatin A -0.012 | [1] -0.02 | defactinib -0.026 | rucaparib -0.036 | [2] -0.026 | encorafenib -0.007 | [3] -0.011 | [4] 0 | filanesib -0.009 | zotarolimus 0.008 | idasanutlin -0.009 | alisertib -0.026 | [5] -0.084 | gefitinib 0.044 | [6] 0.01 | lapatinib -0.005 | pictilisib 0.047

BLOC1S4 (UniProt Q9NUP1)
inactive: saracatinib 0.028 | sotrastaurin 0.022 | alvocidib -0.005 | Tubastatin A 0.004 | [1] -0.099 | defactinib -0.054 | rucaparib 0.059 | [2] -0.005 | encorafenib -0.065 | [3] -0.049 | [4] 0.007 | filanesib -0.003 | zotarolimus 0.017 | idasanutlin -0.056 | alisertib 0.017 | [5] 0.03 | gefitinib 0.04 | [6] 0.108 | lapatinib -0.001 | pictilisib -0.033

BLM (UniProt P54132)
inactive: saracatinib 0.068 | sotrastaurin -0.038 | alvocidib -0.042 | Tubastatin A -0.019 | [1] 0.071 | defactinib -0.035 | rucaparib -0.033 | [2] -0.01 | encorafenib 0.054 | [3] -0.009 | [4] -0.082 | filanesib 0.011 | zotarolimus -0.011 | idasanutlin -0.15 | alisertib -0.018 | [5] 0.047 | gefitinib -0.014 | [6] 0.036 | lapatinib -0.019

ATXN10 (UniProt Q9UBB4)
inactive: saracatinib 0.014 | sotrastaurin 0.022 | alvocidib -0.097 | Tubastatin A -0.006 | [1] -0.024 | defactinib -0.046 | rucaparib -0.021 | [2] -0.01 | encorafenib 0 | [3] 0.005 | [4] 0.034 | filanesib -0.064 | zotarolimus 0.027 | idasanutlin -0.094 | alisertib -0.084 | [5] 0.174 | gefitinib -0.006 | [6] 0.021 | lapatinib 0.013 | pictilisib -0.035

BAG1 (UniProt Q99933)
inactive: saracatinib 0.051 | sotrastaurin -0.043 | alvocidib 0.005 | Tubastatin A 0.015 | [1] -0.019 | defactinib -0.031 | rucaparib -0.011 | [2] -0.024 | encorafenib 0.043 | [3] 0.06 | [4] 0.059 | filanesib -0.058 | zotarolimus -0.074 | idasanutlin 0.01 | alisertib -0.028 | [5] 0.053 | gefitinib -0.022 | [6] 0.004 | lapatinib -0.011 | pictilisib -0.017

BNIP2 (UniProt J3KN59)
inactive: saracatinib 0.033 | sotrastaurin 0.042 | alvocidib -0.174 | Tubastatin A -0.04 | [1] -0.055 | defactinib -0.025 | rucaparib 0.033 | [2] -0.101 | encorafenib -0.008 | [3] 0.014 | [4] 0 | filanesib -0.103 | zotarolimus 0.036 | idasanutlin -0.075 | alisertib 0.05 | [5] -0.08 | gefitinib 0.511 | [6] 0.138 | lapatinib 0.011 | pictilisib 0.004

BANF1 (UniProt O75531)
inactive: saracatinib -0.047 | sotrastaurin 0.057 | alvocidib -0.032 | Tubastatin A 0.018 | [1] 0.053 | defactinib 0.066 | rucaparib -0.037 | [2] 0.057 | encorafenib -0.057 | [3] -0.007 | [4] -0.094 | filanesib 0.044 | zotarolimus 0.021 | idasanutlin -0.039 | alisertib 0.022 | [5] -0.079 | gefitinib 0.007 | [6] 0.031 | lapatinib -0.162 | pictilisib 0.137

ATXN7L3B (UniProt Q96GX2)
inactive: saracatinib -0.025 | sotrastaurin 0.028 | alvocidib -0.076 | Tubastatin A 0.071 | [1] -0.008 | defactinib 0.039 | rucaparib 0.019 | [2] -0.012 | encorafenib -0.043 | [3] 0.093 | [4] -0.052 | filanesib 0.128 | zotarolimus 0.048 | idasanutlin -0.04 | alisertib -0.058 | [5] 0.036 | gefitinib 0.043 | [6] 0.008 | lapatinib -0.042 | pictilisib 0.004

BAIAP2L1 (UniProt Q9UHR4)
inactive: saracatinib 0.031 | sotrastaurin 0.022 | alvocidib -0.047 | Tubastatin A -0.006 | [1] -0.008 | defactinib -0.053 | rucaparib 0 | [2] -0.011 | encorafenib -0.009 | [3] 0.003 | [4] -0.043 | filanesib -0.019 | zotarolimus -0.017 | idasanutlin -0.003 | alisertib 0.007 | [5] 0.013 | gefitinib 0.014 | [6] 0.021 | lapatinib 0.004 | pictilisib 0.025

BORCS6 (UniProt Q96GS4)
inactive: saracatinib 0.067 | sotrastaurin -0.053 | alvocidib -0.097 | Tubastatin A -0.01 | [1] -0.098 | defactinib -0.022 | rucaparib -0.043 | [2] -0.028 | encorafenib -0.017 | [3] -0.018 | [4] 0.031 | filanesib -0.127 | zotarolimus -0.055 | idasanutlin -0.013 | alisertib 0.003 | [5] -0.001 | gefitinib 0.015 | [6] 0.051 | lapatinib -0.026 | pictilisib 0.089

BLOC1S6 (UniProt Q9UL45)
inactive: saracatinib 0.015 | sotrastaurin 0.02 | alvocidib -0.032 | Tubastatin A -0.04 | [1] 0.073 | defactinib -0.045 | rucaparib 0.018 | [2] 0.005 | encorafenib 0.005 | [3] 0.117 | [4] 0.019 | filanesib -0.078 | zotarolimus -0.004 | idasanutlin -0.11 | alisertib -0.035 | [5] 0.025 | gefitinib -0.114 | [6] 0.111 | lapatinib 0.094

BMS1 (UniProt Q14692)
inactive: saracatinib -0.11 | sotrastaurin 0.039 | alvocidib 0.155 | Tubastatin A 0.152 | [1] -0.004 | defactinib 0.192 | rucaparib 0.218 | [2] 0.112 | encorafenib 0.158 | [3] -0.035 | [4] -0.04 | filanesib 0.182 | zotarolimus 0.074 | idasanutlin 0.128 | alisertib -0.088 | [5] 0 | gefitinib -0.024 | [6] -0.145 | lapatinib 0.133 | pictilisib -0.086

Two neighbouring records from above, for reference:
BLOC1S6 (UniProt Q9UL45)
inactive: saracatinib 0.015 | sotrastaurin 0.02 | alvocidib -0.032 | Tubastatin A -0.04 | [1] 0.073 | defactinib -0.045 | rucaparib 0.018 | [2] 0.005 | encorafenib 0.005 | [3] 0.117 | [4] 0.019 | filanesib -0.078 | zotarolimus -0.004 | idasanutlin -0.11 | alisertib -0.035 | [5] 0.025 | gefitinib -0.114 | [6] 0.111 | lapatinib 0.094

BMS1 (UniProt Q14692)
inactive: saracatinib -0.11 | sotrastaurin 0.039 | alvocidib 0.155 | Tubastatin A 0.152 | [1] -0.004 | defactinib 0.192 | rucaparib 0.218 | [2] 0.112 | encorafenib 0.158 | [3] -0.035 | [4] -0.04 | filanesib 0.182 | zotarolimus 0.074 | idasanutlin 0.128 | alisertib -0.088 | [5] 0 | gefitinib -0.024 | [6] -0.145 | lapatinib 0.133 | pictilisib -0.086

Following part:

BLOC1S5 (UniProt Q8TDH9)
inactive: saracatinib 0.062 | sotrastaurin 0.052 | alvocidib -0.012 | Tubastatin A 0.059 | [1] -0.041 | defactinib -0.057 | rucaparib -0.002 | [2] -0.037 | encorafenib 0.021 | [3] 0.04 | [4] -0.018 | filanesib -0.068 | zotarolimus -0.059 | idasanutlin 0.005 | alisertib -0.033 | [5] 0.052 | gefitinib -0.025 | [6] 0.064 | lapatinib 0.017 | pictilisib 0.041
